Laboratory results: PubChem BioAssay AID1259424 (University of Nebraska Medical Center, 2018)
In all, the deposit lists about 14,000 reagents; below is an unselected part. 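Higher correlation or smaller distance means closer resemblance to KSR1 loss; control wells, including KSR1 knockdowns, recur on many plates.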 The record does not give: the time to read-out.

Assay: 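Find knockdowns that reproduce the expression shifts seen after KSR1 loss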 (primary screen)
System: human HCT116 colon cancer cells
Reagent: siRNA pool against human genes, 50 nM
Measurement: 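Log2 levels of six mRNAs (branched-DNA multiplex), adjusted by two reference genes and the non-targeting median, then scored against the average KSR1 knockdown pattern as Pearson r and euclidean distance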
Scale: mean correlation with KSR1 profile and KSR1 correlation: higher = expression change more like KSR1 knockdown; mean distance from KSR1 profile: higher = expression change less like KSR1 knockdown

Target gene	mean correlation with KSR1 profile	mean distance from KSR1 profile	KSR1 correlation, replicate 1	KSR1 correlation, replicate 2	KSR1 correlation, replicate 3
BCL7A	0.638	1.46	0.779	0.56	0.432
ALOX5	-0.161	2.94	-0.232	-0.135	0.0466
AICDA	0.525	1.7	0.5	0.425	0.515
IHH	0.34	1.34	0.45	0.576	0.134
MAP3K10	0.29	3.17	0.471	0.446	-0.17
NME1	0.146	2.53	0.251	0.375	-0.121
TRIM38	0.315	1.21	0.44	0.209	0.38
MPPED2	-0.462	1.9	-0.419	-0.504	-0.504
PXN	0.102	2.26	0.0845	0.113	-0.0774
GPR84	0.397	1.93	0.0544	0.364	0.528
AMN	0.144	1.47	0.18	0.109	0.176
MPG	-0.249	3.44	-0.14	-0.317	-0.445
UNC13B	-0.703	3.22	-0.747	-0.463	-0.852
SLC39A7	0.0691	2.65	-0.159	0.415	0.141
TCN2	-0.274	1.85	-0.315	-0.335	-0.364
COBLL1	-0.454	1.41	-0.21	-0.503	-0.602
VANGL1	0.536	1.29	0.397	0.5	0.338
GSTZ1	0.437	0.894	0.579	0.0684	0.424
CNOT2	0.0841	2.29	0.107	-0.0336	0.0254
POLR1A	-0.391	4.35	-0.269	-0.537	-0.368
SIM2	0.683	1.82	0.677	0.706	0.596
IL22RA2	0.0769	1.28	0.0507	-0.0249	0.25
KIAA0753	-0.487	1.96	-0.31	-0.758	-0.308
CLEC4E	-0.155	2.31	0.143	-0.324	-0.268
MGAT2	-0.42	3.04	-0.433	-0.556	-0.293
ZBTB5	-0.682	2.42	-0.491	-0.877	-0.488
KIF2A	0.11	3.15	-0.00206	0.162	0.145
SPRY4	0.193	2.24	0.22	0.141	0.035
SIPA1L2	0.304	1.33	0.272	-0.062	0.576
MED21	-0.508	2.88	-0.515	-0.41	-0.562
CDC7	0.39	1.53	0.763	0.0563	-0.348
RAB5C	-0.828	1.99	-0.739	-0.919	-0.828
KIFC1	0.0286	2.41	-0.0461	0.167	0.0198
NMD3	-0.146	1.42	-0.567	-0.417	-0.416
ZNF562	-0.071	1.72	0.309	-0.299	-0.215
CLDN17	0.505	1.76	0.445	0.419	0.409
PLA2G4C	-0.478	2.37	-0.568	-0.636	-0.539
TMEM63C	0.447	1.94	0.385	0.377	0.641
LSM1	-0.712	2.42	-0.844	-0.711	-0.579
CBL	0.0887	1.35	-0.171	0.183	0.00286
KRT33A	0.568	2.3	0.408	0.526	0.741
PAGE1	-0.0357	2.78	-0.0144	-0.0555	-0.0847
AXL	-0.0887	2.24	-0.168	-0.00799	-0.192
IQSEC1	0.173	2.24	0.365	-0.0567	0.243
ZC3H13	-0.246	2.21	-0.0363	-0.53	0.155
P2RX2	-0.503	1.34	-0.32	-0.169	-0.142
PCDHGA11	-0.215	1.21	-0.39	-0.451	-0.185
ST14	0.461	2.48	0.698	0.0406	0.416
PCYT2	0.158	1.36	0.195	0.13	0.206
TIAL1	0.559	2.13	0.751	0.535	0.484
TFIP11	-0.272	2.3	0.036	-0.472	-0.527
CD14	-0.37	1.38	-0.219	-0.445	-0.357
LIF	-0.697	2.97	-0.756	-0.671	-0.734
PCDHGA5	0.156	1.49	0.0991	0.0493	0.263
PDPR	-0.264	4.38	-0.511	0.129	-0.234
ZAP70	0.245	1.75	0.654	0.265	-0.699
NECAB3	-0.257	1.46	-0.156	-0.32	-0.501
RAB27A	0.409	1.24	0.288	0.24	0.473
RASSF1	0.344	2.4	0.191	0.42	0.0702
PMS2	0.147	1.58	-0.00285	0.299	0.136
RPUSD2	-0.396	2.78	-0.571	-0.52	-0.399
IPO5	-0.297	2.34	-0.384	-0.531	-0.482
ITGB7	-0.572	2.56	-0.624	-0.522	-0.588
